PubChem BioAssay AID686938 – Drosophila RNAi Screening Center, 2013

- Purpose: 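Fly genes required for calcium entry once internal stores are emptied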 (primary screen)
- Cells: Drosophila S2R+ cells
- Knock-down reagent: long dsRNA against Drosophila genes, about 0.25 µg dsRNA per well, roughly 10,000 cells
- Time to read-out: 5 days of knock-down before the calcium assay
- Conditions: thapsigargin (SERCA pump blocker) to empty calcium stores; entry signal taken 4 min after adding it
- Read-out: 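Duplicate raw fluo-4 intensities per well from a plate reader, at rest and four minutes after thapsigargin emptied calcium stores; entry-to-rest ratio filled for only some wells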
- Reading the numbers: calcium entry signal: higher = stronger calcium signal after store depletion; entry to resting ratio: higher = more calcium entry relative to resting level; resting calcium signal: higher = higher resting calcium signal
- Units: calcium entry signal in fluorescence units; resting calcium signal in fluorescence units
- Active means: 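Hit if the duplicate-averaged plate z-score for entry over resting signal is under −3; wells with weak total dye signal (Fmax z < −2) or more than 5 off-targets removed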
- Meaning of the calls: active = strongly reduced calcium entry; inactive = no strong reduction
The screen tested about 23,000 reagents; this is a random part of those that have a named target and a result. Over the whole deposit, 75 (0.33%) are marked active. 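Raw plate signals without normalisation; calls rest on plate z-scores that were not deposited; ratio present for only 364 wells.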 Entries without a mark were called inactive. The record does not give: the dose of the treatment.

{"gene knocked down": "Syx4", "amplicon": "DRSC18586", "calcium entry signal, replicate 1": 3.02e7, "calcium entry signal, replicate 2": 5.28e7, "entry to resting ratio": 2, "resting calcium signal, replicate 1": 1.53e7, "resting calcium signal, replicate 2": 2.27e7}
{"gene knocked down": "Obp73a", "amplicon": "DRSC09907", "calcium entry signal, replicate 1": 3.23e7, "calcium entry signal, replicate 2": 6.05e7, "resting calcium signal, replicate 1": 1.75e7, "resting calcium signal, replicate 2": 2.29e7}
{"gene knocked down": "Hrd3", "amplicon": "DRSC14156", "calcium entry signal, replicate 1": 5.05e7, "calcium entry signal, replicate 2": 4.50e7, "resting calcium signal, replicate 1": 2.35e7, "resting calcium signal, replicate 2": 1.93e7}
{"gene knocked down": "CG12128", "amplicon": "DRSC06104", "calcium entry signal, replicate 1": 3.95e7, "calcium entry signal, replicate 2": 3.73e7, "resting calcium signal, replicate 1": 1.79e7, "resting calcium signal, replicate 2": 1.89e7}
{"gene knocked down": "Oga", "amplicon": "DRSC15901", "calcium entry signal, replicate 1": 5.03e7, "calcium entry signal, replicate 2": 3.91e7, "resting calcium signal, replicate 1": 2.39e7, "resting calcium signal, replicate 2": 1.76e7}
{"gene knocked down": "b", "amplicon": "DRSC03487", "calcium entry signal, replicate 1": 4.42e7, "calcium entry signal, replicate 2": 2.66e7, "resting calcium signal, replicate 1": 1.79e7, "resting calcium signal, replicate 2": 1.20e7}
{"gene knocked down": "CG13989", "amplicon": "DRSC02321", "calcium entry signal, replicate 1": 4.26e7, "calcium entry signal, replicate 2": 3.57e7, "resting calcium signal, replicate 1": 2.03e7, "resting calcium signal, replicate 2": 1.76e7}
{"gene knocked down": "cl", "amplicon": "DRSC02118", "calcium entry signal, replicate 1": 4.36e7, "resting calcium signal, replicate 1": 2.40e7}
{"gene knocked down": "CG15144", "amplicon": "DRSC02445", "calcium entry signal, replicate 1": 5.21e7, "calcium entry signal, replicate 2": 3.27e7, "resting calcium signal, replicate 1": 2.10e7, "resting calcium signal, replicate 2": 1.58e7}
{"gene knocked down": "CG12895", "amplicon": "DRSC06210", "calcium entry signal, replicate 1": 3.71e7, "calcium entry signal, replicate 2": 4.39e7, "resting calcium signal, replicate 1": 1.79e7, "resting calcium signal, replicate 2": 1.88e7}
{"gene knocked down": "CG7220", "amplicon": "DRSC05235", "calcium entry signal, replicate 1": 4.29e7, "calcium entry signal, replicate 2": 3.21e7, "resting calcium signal, replicate 1": 1.79e7, "resting calcium signal, replicate 2": 1.31e7}
{"gene knocked down": "CG7220", "amplicon": "DRSC07018", "calcium entry signal, replicate 1": 4.37e7, "calcium entry signal, replicate 2": 3.88e7, "resting calcium signal, replicate 1": 2.01e7, "resting calcium signal, replicate 2": 1.69e7}
{"gene knocked down": "Gip", "amplicon": "DRSC18667", "calcium entry signal, replicate 1": 4.54e7, "calcium entry signal, replicate 2": 2.87e7, "resting calcium signal, replicate 1": 2.13e7, "resting calcium signal, replicate 2": 1.42e7}
{"gene knocked down": "mRpL9", "amplicon": "DRSC15678", "calcium entry signal, replicate 1": 3.44e7, "calcium entry signal, replicate 2": 4.74e7, "resting calcium signal, replicate 1": 1.72e7, "resting calcium signal, replicate 2": 7.25e7}
{"gene knocked down": "Ggamma30A", "amplicon": "DRSC02715", "calcium entry signal, replicate 1": 2.98e7, "calcium entry signal, replicate 2": 4.70e7, "resting calcium signal, replicate 1": 1.52e7, "resting calcium signal, replicate 2": 1.99e7}
{"gene knocked down": "Ggamma30A", "amplicon": "DRSC03331", "calcium entry signal, replicate 1": 2.97e7, "calcium entry signal, replicate 2": 4.46e7, "resting calcium signal, replicate 1": 1.37e7, "resting calcium signal, replicate 2": 1.97e7}
{"gene knocked down": "Ns3", "amplicon": "DRSC18607", "calcium entry signal, replicate 1": 2.63e7, "calcium entry signal, replicate 2": 2.79e7, "resting calcium signal, replicate 1": 1.19e7, "resting calcium signal, replicate 2": 1.44e7}
{"gene knocked down": "CG17377", "amplicon": "DRSC00950", "calcium entry signal, replicate 1": 3.75e7, "calcium entry signal, replicate 2": 4.27e7, "resting calcium signal, replicate 1": 2.04e7, "resting calcium signal, replicate 2": 2.03e7}
{"gene knocked down": "CG17377", "amplicon": "DRSC02615", "calcium entry signal, replicate 1": 3.34e7, "resting calcium signal, replicate 1": 1.82e7}
{"gene knocked down": "CG17377", "amplicon": "DRSC21811", "calcium entry signal, replicate 1": 4.16e7, "calcium entry signal, replicate 2": 3.13e7, "resting calcium signal, replicate 1": 2.37e7, "resting calcium signal, replicate 2": 1.52e7}
{"gene knocked down": "CG14625", "amplicon": "DRSC18633", "calcium entry signal, replicate 1": 4.05e7, "calcium entry signal, replicate 2": 6.50e7, "entry to resting ratio": 2.1, "resting calcium signal, replicate 1": 1.93e7, "resting calcium signal, replicate 2": 2.72e7}
